Assay results taken from PMC8384837.
Positions count from the first letter of the chain named. The list shows a part of the results.

Legend:
Conditions in all cases: yeast three-hybrid, YBZ-1, SC-Leu-His + 0.5 mM 3-AT, 4 days
[1] = target: T1, PUM1 PUF domain R3-FRD C935F + Q939D (Homo sapiens) (UniProt Q14671)
T1 sequence: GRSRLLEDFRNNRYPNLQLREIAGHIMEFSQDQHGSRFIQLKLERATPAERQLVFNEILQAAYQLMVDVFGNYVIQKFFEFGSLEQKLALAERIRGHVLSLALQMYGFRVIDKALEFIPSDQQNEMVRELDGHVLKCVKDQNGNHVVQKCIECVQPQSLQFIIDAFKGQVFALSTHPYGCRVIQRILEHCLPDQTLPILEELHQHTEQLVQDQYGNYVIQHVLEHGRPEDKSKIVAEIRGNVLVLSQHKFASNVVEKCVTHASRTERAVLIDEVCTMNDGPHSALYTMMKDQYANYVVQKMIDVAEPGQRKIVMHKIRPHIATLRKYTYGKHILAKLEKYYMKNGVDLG

[2] = target: T2, PUM1 PUF domain R3-WFG C935W + R936F + Q939G (Homo sapiens) (UniProt Q14671)
T2 sequence: T1 sequence with F108W, R109F, D112G

[3] = target: T3, PUM1 PUF domain R3-WWD C935W + R936W + Q939D (Homo sapiens) (UniProt Q14671)
T3 sequence: T1 sequence with F108W, R109W

[4] = target: T4, PUM1 PUF domain R4-ANA N971A + H972N + Q975A (Homo sapiens) (UniProt Q14671)
T4 sequence: T1 sequence with F108C, D112Q, N144A, H145N, Q148A

[5] = target: T5, PUM1 PUF domain R4-APR N971A + H972P + Q975R (Homo sapiens) (UniProt Q14671)
T5 sequence: T1 sequence with F108C, D112Q, N144A, H145P, Q148R

[6] = target: T6, PUM1 PUF domain R4-CPC N971C + H972P + Q975C (Homo sapiens) (UniProt Q14671)
T6 sequence: T1 sequence with F108C, D112Q, N144C, H145P, Q148C

[7] = target: T7, PUM1 PUF domain R4-DFR N971D + H972F + Q975R (Homo sapiens) (UniProt Q14671)
T7 sequence: T1 sequence with F108C, D112Q, N144D, H145F, Q148R

[8] = target: T8, PUM1 PUF domain R4-DHR N971D + Q975R (Homo sapiens) (UniProt Q14671)
T8 sequence: T1 sequence with F108C, D112Q, N144D, Q148R

[9] = target: T9, PUM1 PUF domain R4-LFW N971L + H972F + Q975W (Homo sapiens) (UniProt Q14671)
T9 sequence: T1 sequence with F108C, D112Q, N144L, H145F, Q148W

[10] = target: T10, PUM1 PUF domain R4-LHR N971L + Q975R (Homo sapiens) (UniProt Q14671)
T10 sequence: T1 sequence with F108C, D112Q, N144L, Q148R

[11] = target: T11, PUM1 PUF domain R4-NCG H972C + Q975G (Homo sapiens) (UniProt Q14671)
T11 sequence: T1 sequence with F108C, D112Q, H145C, Q148G

[12] = target: T12, PUM1 PUF domain R4-QPA N971Q + H972P + Q975A (Homo sapiens) (UniProt Q14671)
T12 sequence: T1 sequence with F108C, D112Q, N144Q, H145P, Q148A

[13] = target: T13, PUM1 PUF domain R4-SNF N971S + H972N + Q975F (Homo sapiens) (UniProt Q14671)
T13 sequence: T1 sequence with F108C, D112Q, N144S, H145N, Q148F

[14] = target: T14, PUM1 PUF domain R4-SPR N971S + H972P + Q975R (Homo sapiens) (UniProt Q14671)
T14 sequence: T1 sequence with F108C, D112Q, N144S, H145P, Q148R

[15] = target: T15, PUM1 PUF domain R4-SQR N971S + H972Q + Q975R (Homo sapiens) (UniProt Q14671)
T15 sequence: T1 sequence with F108C, D112Q, N144S, H145Q, Q148R

[16] = target: T16, PUM1 PUF domain R4-THP N971T + Q975P (Homo sapiens) (UniProt Q14671)
T16 sequence: T1 sequence with F108C, D112Q, N144T, Q148P

[17] = target: T17, PUM1 PUF domain R4-TPE N971T + H972P + Q975E (Homo sapiens) (UniProt Q14671)
T17 sequence: T1 sequence with F108C, D112Q, N144T, H145P, Q148E

[18] = target: T18, PUM1 PUF domain R4-VNG N971V + H972N + Q975G (Homo sapiens) (UniProt Q14671)
T18 sequence: T1 sequence with F108C, D112Q, N144V, H145N, Q148G

[19] = target: T19, PUM1 PUF domain R4-WGM N971W + H972G + Q975M (Homo sapiens) (UniProt Q14671)
T19 sequence: T1 sequence with F108C, D112Q, N144W, H145G, Q148M

[20] = target: T20, PUM1 PUF domain R4-WSR N971W + H972S + Q975R (Homo sapiens) (UniProt Q14671)
T20 sequence: T1 sequence with F108C, D112Q, N144W, H145S, Q148R

Question: Which binding signal (log2 enrichment (interaction score)) [1] does the source give for “GGCUAGAACUAGUGGAUCCCCCGGCGCCCGGCGGCUCGAGCCCGGGUAAGUGUAAAUAGUCUGCAUGCCGCCGGGCGCCAUGCCUGCAGGUCGACUCUAGAAAACAUG” here?
Answer: Its binding signal (log2 enrichment (interaction score)) is -3.6.

Question: And the binding signal (log2 enrichment (interaction score)) [2]?
Answer: The binding signal (log2 enrichment (interaction score)) was -4.86.

Question: And the binding signal (log2 enrichment (interaction score)) [3]?
Answer: Its binding signal (log2 enrichment (interaction score)) is -3.61.

Question: And the binding signal (log2 enrichment (interaction score)) [4]?
Answer: The binding signal (log2 enrichment (interaction score)) was 0.46.

Question: And the binding signal (log2 enrichment (interaction score)) [5]?
Answer: Its binding signal (log2 enrichment (interaction score)) is -0.01.

Question: And the binding signal (log2 enrichment (interaction score)) [6]?
Answer: Its binding signal (log2 enrichment (interaction score)) is 0.42.

Question: And the binding signal (log2 enrichment (interaction score)) [7]?
Answer: The binding signal (log2 enrichment (interaction score)) was 0.04.

Question: What about the binding signal (log2 enrichment (interaction score)) [8] of the same sequence?
Answer: The binding signal (log2 enrichment (interaction score)) was 0.04.

Question: And the binding signal (log2 enrichment (interaction score)) [9]?
Answer: Its binding signal (log2 enrichment (interaction score)) is 0.4.

Question: And the binding signal (log2 enrichment (interaction score)) [10]?
Answer: The binding signal (log2 enrichment (interaction score)) was 0.5.

Question: And the binding signal (log2 enrichment (interaction score)) [11]?
Answer: The binding signal (log2 enrichment (interaction score)) was 0.67.

Question: And the binding signal (log2 enrichment (interaction score)) [12]?
Answer: The binding signal (log2 enrichment (interaction score)) was -1.7.

Question: And the binding signal (log2 enrichment (interaction score)) [13]?
Answer: The binding signal (log2 enrichment (interaction score)) was -1.14.

Question: What about the binding signal (log2 enrichment (interaction score)) [14] of the same sequence?
Answer: Its binding signal (log2 enrichment (interaction score)) is 0.15.

Question: What about the binding signal (log2 enrichment (interaction score)) [15] of the same sequence?
Answer: Its binding signal (log2 enrichment (interaction score)) is -3.87.

Question: What about the binding signal (log2 enrichment (interaction score)) [16] of the same sequence?
Answer: The binding signal (log2 enrichment (interaction score)) was 1.58.

Question: What about the binding signal (log2 enrichment (interaction score)) [17] of the same sequence?
Answer: Its binding signal (log2 enrichment (interaction score)) is -6.19.

Question: And the binding signal (log2 enrichment (interaction score)) [18]?
Answer: Its binding signal (log2 enrichment (interaction score)) is 0.29.

Question: What about the binding signal (log2 enrichment (interaction score)) [19] of the same sequence?
Answer: The binding signal (log2 enrichment (interaction score)) was 0.78.

Question: And the binding signal (log2 enrichment (interaction score)) [20]?
Answer: The binding signal (log2 enrichment (interaction score)) was 0.55.
